Measured values reported in US20180134769A1.
Results are given in words; binding and its absence hold for the method and conditions named. Some results given as binding are weak or reduced against the parent protein; the word gives no strength.

Biological target: TcdB-RBD-f1 (Clostridium difficile) (UniProt P18177)
Assay: ELISA, antigen coated; member inferred

B1: B15.5 (VHH)
VHH: QVQLVESGGDLVQAGGSLRLSCAASGSISRISTMGWYRQAPGKQRELVATISTGGTTNYAESVKGRFTVSRDNAKNTMYLQMNSLKPEDTAVYYCAAGWKVVRGSLEYEYSGQGTQVTVSS
binding: binds
